Taken from: PubChem BioAssay AID1259308 (NCATS, 2017)
Purpose: 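Knock-downs that increase output of a recombinant reporter protein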 (primary screen). Cells: human HEK293 embryonic kidney cells stably expressing firefly luciferase (HEK-CMV-Luc2-Hygro). Knock-down reagent: single siRNA against human genes, 0.8 pmol siRNA per well. Duration: 72 h. Measurement: 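Luciferase light (ONE-Glo) measured on one replicate plate set and viability (CellTiter-Glo) on the other, scaled to a negative control siRNA, with robust z-scores and luciferase per cell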. Direction: total luciferase, z-score and total luciferase, % of control: higher = more reporter protein produced. Rule for the call: 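Active when the median/MAD z-score for overall luciferase is greater than 3; a gene was taken forward for validation with new siRNAs if at least two of its three siRNAs passed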. Meaning of the calls: active = raised luciferase; inactive = no rise.
In all, the deposit lists about 59,000 reagents; this is a part drawn at random. About 1,510 of all reagents (2.6%) were called active. 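Calls use total luciferase alone and ignore viability, so some active siRNAs may act by altering cell number.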 The numbers tell different reagents against one gene apart. Further read-outs or replicates are left out here. Reagent sequences are not shown.

What is on record for DCHS2 (GeneID 54798) #1?
total luciferase, z-score: -0.497; total luciferase, % of control: 72; activity call: inactive

With DCHS2 (GeneID 54798) #2, what was measured?
total luciferase, z-score: -0.235; total luciferase, % of control: 77.2; activity call: inactive

Which result is listed for DCHS2 (GeneID 54798) #3?
total luciferase, z-score: -0.5; total luciferase, % of control: 71.9; activity call: inactive

What is on record for MUS81 (GeneID 80198) #1?
total luciferase, z-score: 1.13; total luciferase, % of control: 104; activity call: inactive

Which result is listed for MUS81 (GeneID 80198) #2?
total luciferase, z-score: 6.54; total luciferase, % of control: 212; activity call: active

Which result is listed for MUS81 (GeneID 80198) #3?
total luciferase, z-score: 0.916; total luciferase, % of control: 100; activity call: inactive

With SPIB (GeneID 6689) #1, how do the results read?
total luciferase, z-score: -0.157; total luciferase, % of control: 78.8; activity call: inactive

Which result is listed for SPIB (GeneID 6689) #2?
total luciferase, z-score: 0.183; total luciferase, % of control: 85.5; activity call: inactive

For SPIB (GeneID 6689) #3, what does the deposit list?
total luciferase, z-score: 1.09; total luciferase, % of control: 104; activity call: inactive

For TMEM80 (GeneID 283232) #1, what was measured?
total luciferase, z-score: 2.91; total luciferase, % of control: 140; activity call: inactive

What did the screen give for TMEM80 (GeneID 283232) #2?
total luciferase, z-score: 0.434; total luciferase, % of control: 90.5; activity call: inactive

What did the screen give for TMEM80 (GeneID 283232) #3?
total luciferase, z-score: -0.331; total luciferase, % of control: 75.3; activity call: inactive

With WDR74 (GeneID 54663) #1, what was measured?
total luciferase, z-score: -2.1; total luciferase, % of control: 40.2; activity call: inactive

Which result is listed for WDR74 (GeneID 54663) #2?
total luciferase, z-score: 0.526; total luciferase, % of control: 92.4; activity call: inactive

For WDR74 (GeneID 54663) #3, what does the deposit list?
total luciferase, z-score: -0.345; total luciferase, % of control: 75; activity call: inactive

For KRT35 (GeneID 3886) #1, what was measured?
total luciferase, z-score: 0.396; total luciferase, % of control: 89.8; activity call: inactive

With KRT35 (GeneID 3886) #2, what does the deposit list?
total luciferase, z-score: -1.43; total luciferase, % of control: 53.4; activity call: inactive

How did the screen score KRT35 (GeneID 3886) #3?
total luciferase, z-score: -3.06; total luciferase, % of control: 21; activity call: inactive

What is on record for TMEM217 (GeneID 221468) #1?
total luciferase, z-score: 0.532; total luciferase, % of control: 92.5; activity call: inactive

For TMEM217 (GeneID 221468) #2, what was measured?
total luciferase, z-score: -0.0437; total luciferase, % of control: 81; activity call: inactive

What is on record for TMEM217 (GeneID 221468) #3?
total luciferase, z-score: -0.731; total luciferase, % of control: 67.3; activity call: inactive

For RMDN3 (GeneID 55177) #1, what does the deposit list?
total luciferase, z-score: 0.163; total luciferase, % of control: 85.1; activity call: inactive

With RMDN3 (GeneID 55177) #2, what does the deposit list?
total luciferase, z-score: 0.6; total luciferase, % of control: 93.8; activity call: inactive

Which result is listed for RMDN3 (GeneID 55177) #3?
total luciferase, z-score: -1.92; total luciferase, % of control: 43.8; activity call: inactive

For AFF1 (GeneID 4299) #1, what does the deposit list?
total luciferase, z-score: -0.216; total luciferase, % of control: 77.6; activity call: inactive

With AFF1 (GeneID 4299) #2, how do the results read?
total luciferase, z-score: 1.69; total luciferase, % of control: 115; activity call: inactive

What did the screen give for AFF1 (GeneID 4299) #3?
total luciferase, z-score: -0.659; total luciferase, % of control: 68.8; activity call: inactive

For MAP4K3 (GeneID 8491) #1, what does the deposit list?
total luciferase, z-score: 0.745; total luciferase, % of control: 96.7; activity call: inactive

How did the screen score MAP4K3 (GeneID 8491) #2?
total luciferase, z-score: -1.63; total luciferase, % of control: 49.4; activity call: inactive

For MAP4K3 (GeneID 8491) #3, what does the deposit list?
total luciferase, z-score: -0.571; total luciferase, % of control: 70.5; activity call: inactive

With SATB1 (GeneID 6304) #1, how do the results read?
total luciferase, z-score: 1.09; total luciferase, % of control: 103; activity call: inactive

For SATB1 (GeneID 6304) #2, how do the results read?
total luciferase, z-score: -0.558; total luciferase, % of control: 70.8; activity call: inactive

How did the screen score SATB1 (GeneID 6304) #3?
total luciferase, z-score: 0.104; total luciferase, % of control: 84; activity call: inactive

Entries above whose gene name starts with A or a (3):
AFF1 (GeneID 4299) #1: total luciferase, z-score = -0.216; total luciferase, % of control = 77.6; activity call = inactive
AFF1 (GeneID 4299) #2: total luciferase, z-score = 1.69; total luciferase, % of control = 115; activity call = inactive
AFF1 (GeneID 4299) #3: total luciferase, z-score = -0.659; total luciferase, % of control = 68.8; activity call = inactive
